Record: PubChem BioAssay AID504774 (Drosophila RNAi Screening Center, 2011)
Aim: 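Knock-downs that shift viability of MMS-exposed cells relative to untreated ones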 (primary screen). Cell system: Drosophila Kc167 cells. Reagent: long dsRNA against Drosophila genes, about 0.25 µg dsRNA per well. Time to read-out: about 6 days: 3 days knock-down, then 3 days with or without MMS. Challenge: methyl methanesulphonate 0.004% (w/v) for 3 days after knock-down. Detection: 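ATP-dependent luminescence as a measure of live cells in MMS-exposed wells, quantile normalised within each plate, with replicate values also given as a mean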. Reading the numbers: mean viability with MMS and viability with MMS: higher = more surviving cells after MMS.
The screen tested about 23,000 reagents; below is an unselected part of those that have a named target and a result. 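Values are quantile-normalised luminescence on an arbitrary scale; higher means more cells surviving MMS.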 Names joined by + are all predicted targets of the reagent.

The opening 2 entries, to show the layout:
gene | DRSC id | mean viability with MMS | viability with MMS, replicate 1 | viability with MMS, replicate 2
ATP6 (retired record) | DRSC21278 | 3.48e6 | 3.97e6 | 3.95e6
Adk2 | DRSC09827 | 3.49e6 | 3.94e6 | 3.96e6

The listing, from the first entry:
gene | DRSC id | mean viability with MMS | viability with MMS, replicate 1 | viability with MMS, replicate 2
ATP6 (retired record) | DRSC21278 | 3.48e6 | 3.97e6 | 3.95e6
Adk2 | DRSC09827 | 3.49e6 | 3.94e6 | 3.96e6
Nost | DRSC18037 | 3.25e6 | 3.55e6 | 3.74e6
Nost | DRSC18338 | 3.33e6 | 3.78e6 | 3.76e6
CG34296 | DRSC13961 | 3.52e6 | 3.99e6 | 4.00e6
Kaz1-ORFB + Kaz1-ORFA | DRSC08669 | 3.74e6 | 4.27e6 | 4.08e6
CG10962 | DRSC18421 | 3.36e6 | 4.00e6 | 3.26e6
TotZ | DRSC13450 | 3.49e6 | 4.00e6 | 3.91e6
l(3)80Fg | DRSC21645 | 3.71e6 | 3.99e6 | 4.36e6
l(3)80Fg | DRSC22171 | 3.57e6 | 3.98e6 | 4.09e6
Nthl1 | DRSC03183 | 3.46e6 | 3.93e6 | 3.91e6
CG14627 | DRSC18630 | 3.37e6 | 3.84e6 | 3.81e6
Or19b + Or19a | DRSC22604 | 3.59e6 | 4.04e6 | 4.06e6
Ccp84Ad | DRSC12589 | 3.49e6 | 4.08e6 | 3.79e6
Ccp84Ad | DRSC22854 | 3.40e6 | 3.90e6 | 3.89e6
pain | DRSC04273 | 3.21e6 | 3.63e6 | 3.53e6
Nepl14 | DRSC15631 | 3.68e6 | 4.08e6 | 4.25e6
CG3528 | DRSC00611 | 3.47e6 | 3.97e6 | 3.88e6
lsn | DRSC16081 | 3.65e6 | 4.19e6 | 4.09e6
Acp53C14a | DRSC07224 | 3.49e6 | 4.03e6 | 3.88e6
CG8243 | DRSC07122 | 3.85e6 | 4.21e6 | 4.36e6
CG8243 | DRSC22608 | 3.43e6 | 3.87e6 | 3.98e6
mael | DRSC11894 | 3.64e6 | 4.09e6 | 4.14e6
CG34398 | DRSC01052 | 3.32e6 | 3.77e6 | 3.71e6
CG34398 | DRSC02510 | 3.45e6 | 3.82e6 | 3.99e6
CG34398 | DRSC02511 | 3.59e6 | 3.99e6 | 4.19e6
CG34398 | DRSC03228 | 3.40e6 | 3.61e6 | 4.06e6
CG34398 | DRSC23293 | 3.75e6 | 4.27e6 | 4.23e6
